Experimental data: the supplement of paper PMC10849652
Some of the results follow.

The chains behind the UniProt entries cited, without tags or fusion partners. Where a name states a change or a piece, a line headed by the entry shows the natural chain unless it says otherwise.
UniProt Q96SY0, whole entry, looked up: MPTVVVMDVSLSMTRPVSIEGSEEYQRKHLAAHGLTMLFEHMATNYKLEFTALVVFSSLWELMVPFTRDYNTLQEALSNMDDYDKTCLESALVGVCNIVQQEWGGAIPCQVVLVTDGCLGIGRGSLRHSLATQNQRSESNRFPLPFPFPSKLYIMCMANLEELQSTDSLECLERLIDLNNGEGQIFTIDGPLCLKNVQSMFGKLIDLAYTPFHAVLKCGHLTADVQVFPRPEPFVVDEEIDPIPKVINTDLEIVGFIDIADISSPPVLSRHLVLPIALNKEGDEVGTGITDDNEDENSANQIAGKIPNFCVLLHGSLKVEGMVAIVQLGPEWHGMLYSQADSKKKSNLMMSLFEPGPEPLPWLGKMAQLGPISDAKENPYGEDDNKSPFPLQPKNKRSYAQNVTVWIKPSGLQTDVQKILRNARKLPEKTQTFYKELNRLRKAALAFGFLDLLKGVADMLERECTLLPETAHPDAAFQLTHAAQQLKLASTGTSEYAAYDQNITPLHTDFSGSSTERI
UniProt Q8IY47: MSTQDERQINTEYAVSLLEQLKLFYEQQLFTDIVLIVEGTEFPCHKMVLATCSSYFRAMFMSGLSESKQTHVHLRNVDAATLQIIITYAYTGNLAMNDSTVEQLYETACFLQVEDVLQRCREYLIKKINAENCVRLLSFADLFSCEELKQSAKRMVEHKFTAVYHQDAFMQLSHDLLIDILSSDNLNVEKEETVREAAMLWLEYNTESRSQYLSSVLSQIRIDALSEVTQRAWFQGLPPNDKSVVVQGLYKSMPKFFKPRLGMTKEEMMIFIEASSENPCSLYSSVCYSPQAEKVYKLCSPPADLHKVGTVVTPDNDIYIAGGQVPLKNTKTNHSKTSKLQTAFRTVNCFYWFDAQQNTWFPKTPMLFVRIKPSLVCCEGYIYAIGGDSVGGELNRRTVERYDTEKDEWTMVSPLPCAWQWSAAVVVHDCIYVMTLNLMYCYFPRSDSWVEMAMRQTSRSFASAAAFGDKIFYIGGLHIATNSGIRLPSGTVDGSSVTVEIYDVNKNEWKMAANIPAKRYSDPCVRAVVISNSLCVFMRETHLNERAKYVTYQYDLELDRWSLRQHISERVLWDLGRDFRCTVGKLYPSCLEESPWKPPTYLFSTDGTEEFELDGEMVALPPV
UniProt P08648, whole entry, looked up: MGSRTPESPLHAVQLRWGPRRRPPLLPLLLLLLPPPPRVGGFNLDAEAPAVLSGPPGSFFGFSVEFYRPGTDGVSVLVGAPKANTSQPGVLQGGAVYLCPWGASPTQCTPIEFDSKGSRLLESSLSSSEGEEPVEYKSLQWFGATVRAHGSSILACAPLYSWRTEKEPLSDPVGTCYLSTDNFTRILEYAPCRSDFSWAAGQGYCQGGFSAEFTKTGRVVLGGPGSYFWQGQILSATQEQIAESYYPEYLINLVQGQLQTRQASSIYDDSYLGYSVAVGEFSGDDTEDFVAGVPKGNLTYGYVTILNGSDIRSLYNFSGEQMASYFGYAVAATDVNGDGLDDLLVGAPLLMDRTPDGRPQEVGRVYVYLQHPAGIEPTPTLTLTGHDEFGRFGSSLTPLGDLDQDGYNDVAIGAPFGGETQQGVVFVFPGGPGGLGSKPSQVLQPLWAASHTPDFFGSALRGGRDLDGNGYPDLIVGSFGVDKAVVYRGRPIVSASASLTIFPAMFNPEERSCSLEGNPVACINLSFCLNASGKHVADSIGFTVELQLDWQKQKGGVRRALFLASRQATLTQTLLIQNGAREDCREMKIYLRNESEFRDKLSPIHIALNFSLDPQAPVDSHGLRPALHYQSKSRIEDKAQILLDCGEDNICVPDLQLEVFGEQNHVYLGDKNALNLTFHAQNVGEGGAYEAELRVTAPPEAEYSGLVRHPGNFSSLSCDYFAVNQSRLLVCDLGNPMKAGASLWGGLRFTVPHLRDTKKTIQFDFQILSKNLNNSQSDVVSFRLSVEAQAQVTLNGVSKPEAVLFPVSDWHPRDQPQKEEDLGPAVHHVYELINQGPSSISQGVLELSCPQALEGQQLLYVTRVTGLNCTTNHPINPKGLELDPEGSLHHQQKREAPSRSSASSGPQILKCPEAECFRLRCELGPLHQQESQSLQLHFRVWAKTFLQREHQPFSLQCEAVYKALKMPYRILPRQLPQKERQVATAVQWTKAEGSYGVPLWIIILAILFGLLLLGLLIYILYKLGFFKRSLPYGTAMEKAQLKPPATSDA
UniProt Q9H1K1: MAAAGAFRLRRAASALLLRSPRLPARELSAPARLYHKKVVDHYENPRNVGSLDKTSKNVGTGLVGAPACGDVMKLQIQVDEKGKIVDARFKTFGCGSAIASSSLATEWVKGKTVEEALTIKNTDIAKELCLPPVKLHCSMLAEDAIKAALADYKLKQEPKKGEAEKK
UniProt Q92830, whole entry, looked up: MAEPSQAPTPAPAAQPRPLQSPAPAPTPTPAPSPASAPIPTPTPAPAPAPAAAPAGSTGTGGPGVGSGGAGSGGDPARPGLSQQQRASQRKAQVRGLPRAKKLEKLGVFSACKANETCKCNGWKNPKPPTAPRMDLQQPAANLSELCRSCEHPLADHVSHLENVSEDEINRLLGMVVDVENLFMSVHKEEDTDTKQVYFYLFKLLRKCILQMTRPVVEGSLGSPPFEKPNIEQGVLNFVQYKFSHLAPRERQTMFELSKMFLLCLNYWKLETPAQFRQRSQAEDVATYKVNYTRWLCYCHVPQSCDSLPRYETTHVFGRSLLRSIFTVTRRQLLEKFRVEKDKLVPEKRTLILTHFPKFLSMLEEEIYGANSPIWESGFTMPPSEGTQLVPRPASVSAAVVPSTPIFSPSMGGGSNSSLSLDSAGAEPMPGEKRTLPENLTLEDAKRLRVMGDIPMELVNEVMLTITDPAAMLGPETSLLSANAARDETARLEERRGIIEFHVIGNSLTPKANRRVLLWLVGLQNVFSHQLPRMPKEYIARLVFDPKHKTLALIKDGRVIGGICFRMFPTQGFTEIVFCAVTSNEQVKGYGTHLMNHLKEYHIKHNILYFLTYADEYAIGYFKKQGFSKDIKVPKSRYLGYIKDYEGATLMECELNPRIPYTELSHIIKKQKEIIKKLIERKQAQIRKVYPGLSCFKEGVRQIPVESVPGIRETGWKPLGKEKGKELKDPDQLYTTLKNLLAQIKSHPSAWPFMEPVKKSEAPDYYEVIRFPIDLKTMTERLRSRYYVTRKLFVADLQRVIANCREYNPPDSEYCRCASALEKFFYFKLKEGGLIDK
UniProt Q6P9B9, whole entry, looked up: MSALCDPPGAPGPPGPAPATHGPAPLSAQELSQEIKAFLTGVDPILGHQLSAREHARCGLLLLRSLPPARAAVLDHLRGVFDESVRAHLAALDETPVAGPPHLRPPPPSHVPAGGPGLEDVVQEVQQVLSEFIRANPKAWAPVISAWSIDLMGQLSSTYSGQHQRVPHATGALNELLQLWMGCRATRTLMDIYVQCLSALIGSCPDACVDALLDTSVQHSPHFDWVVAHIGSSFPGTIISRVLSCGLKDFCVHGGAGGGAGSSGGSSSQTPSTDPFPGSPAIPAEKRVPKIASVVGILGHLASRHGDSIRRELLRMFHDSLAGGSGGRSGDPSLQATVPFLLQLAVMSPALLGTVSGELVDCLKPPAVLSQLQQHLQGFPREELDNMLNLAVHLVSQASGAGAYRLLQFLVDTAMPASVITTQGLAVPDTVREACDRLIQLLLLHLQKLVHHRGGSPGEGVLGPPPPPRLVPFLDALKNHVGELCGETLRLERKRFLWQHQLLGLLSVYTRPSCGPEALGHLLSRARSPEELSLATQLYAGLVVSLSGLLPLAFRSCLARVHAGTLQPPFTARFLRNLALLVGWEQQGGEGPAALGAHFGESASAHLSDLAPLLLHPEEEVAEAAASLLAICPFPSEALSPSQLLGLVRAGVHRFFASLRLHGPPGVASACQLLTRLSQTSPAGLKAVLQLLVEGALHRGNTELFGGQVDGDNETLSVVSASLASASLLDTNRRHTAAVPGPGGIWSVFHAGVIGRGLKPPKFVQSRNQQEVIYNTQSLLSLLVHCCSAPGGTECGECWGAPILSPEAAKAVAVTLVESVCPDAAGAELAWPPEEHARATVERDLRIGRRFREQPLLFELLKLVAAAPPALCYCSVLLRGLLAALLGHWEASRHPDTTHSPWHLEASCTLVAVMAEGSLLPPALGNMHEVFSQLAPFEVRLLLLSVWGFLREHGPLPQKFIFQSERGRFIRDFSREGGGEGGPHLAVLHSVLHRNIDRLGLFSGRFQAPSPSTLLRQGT
UniProt Q75QN2, whole entry, looked up: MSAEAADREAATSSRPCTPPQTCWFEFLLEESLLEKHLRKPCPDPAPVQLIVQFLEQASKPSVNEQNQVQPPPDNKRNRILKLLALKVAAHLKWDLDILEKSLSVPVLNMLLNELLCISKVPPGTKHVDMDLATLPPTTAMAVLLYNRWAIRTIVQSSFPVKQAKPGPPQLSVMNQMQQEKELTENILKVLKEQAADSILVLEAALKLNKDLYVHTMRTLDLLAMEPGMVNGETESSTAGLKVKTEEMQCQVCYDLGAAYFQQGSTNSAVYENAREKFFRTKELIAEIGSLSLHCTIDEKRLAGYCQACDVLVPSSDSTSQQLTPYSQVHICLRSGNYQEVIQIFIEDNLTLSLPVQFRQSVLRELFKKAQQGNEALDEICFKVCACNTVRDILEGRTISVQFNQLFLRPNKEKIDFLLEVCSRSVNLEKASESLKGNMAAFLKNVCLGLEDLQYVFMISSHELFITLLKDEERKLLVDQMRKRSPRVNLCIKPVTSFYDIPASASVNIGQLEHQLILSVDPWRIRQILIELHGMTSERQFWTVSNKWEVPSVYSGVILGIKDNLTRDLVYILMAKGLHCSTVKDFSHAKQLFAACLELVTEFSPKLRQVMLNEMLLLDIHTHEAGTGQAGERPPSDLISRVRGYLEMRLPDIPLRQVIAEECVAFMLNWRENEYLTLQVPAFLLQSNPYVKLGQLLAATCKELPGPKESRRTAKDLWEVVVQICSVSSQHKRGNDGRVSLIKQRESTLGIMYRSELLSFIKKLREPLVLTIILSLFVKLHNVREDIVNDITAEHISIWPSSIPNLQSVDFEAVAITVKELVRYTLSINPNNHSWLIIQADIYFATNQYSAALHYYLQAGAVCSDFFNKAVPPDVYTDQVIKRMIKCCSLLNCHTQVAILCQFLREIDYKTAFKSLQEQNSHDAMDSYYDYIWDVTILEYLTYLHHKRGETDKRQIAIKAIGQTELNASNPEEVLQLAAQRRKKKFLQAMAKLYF
UniProt Q92551: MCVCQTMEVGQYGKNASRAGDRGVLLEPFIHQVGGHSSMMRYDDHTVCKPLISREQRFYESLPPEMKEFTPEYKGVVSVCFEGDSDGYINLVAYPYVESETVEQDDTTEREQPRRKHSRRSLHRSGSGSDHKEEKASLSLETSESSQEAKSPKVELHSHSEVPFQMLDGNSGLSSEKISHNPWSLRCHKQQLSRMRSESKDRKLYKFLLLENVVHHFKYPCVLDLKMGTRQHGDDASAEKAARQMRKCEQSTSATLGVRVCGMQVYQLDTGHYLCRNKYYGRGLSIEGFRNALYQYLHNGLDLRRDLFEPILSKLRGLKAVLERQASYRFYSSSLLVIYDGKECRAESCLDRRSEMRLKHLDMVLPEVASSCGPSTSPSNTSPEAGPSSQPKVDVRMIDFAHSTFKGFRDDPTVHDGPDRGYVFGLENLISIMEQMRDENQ
UniProt Q14653: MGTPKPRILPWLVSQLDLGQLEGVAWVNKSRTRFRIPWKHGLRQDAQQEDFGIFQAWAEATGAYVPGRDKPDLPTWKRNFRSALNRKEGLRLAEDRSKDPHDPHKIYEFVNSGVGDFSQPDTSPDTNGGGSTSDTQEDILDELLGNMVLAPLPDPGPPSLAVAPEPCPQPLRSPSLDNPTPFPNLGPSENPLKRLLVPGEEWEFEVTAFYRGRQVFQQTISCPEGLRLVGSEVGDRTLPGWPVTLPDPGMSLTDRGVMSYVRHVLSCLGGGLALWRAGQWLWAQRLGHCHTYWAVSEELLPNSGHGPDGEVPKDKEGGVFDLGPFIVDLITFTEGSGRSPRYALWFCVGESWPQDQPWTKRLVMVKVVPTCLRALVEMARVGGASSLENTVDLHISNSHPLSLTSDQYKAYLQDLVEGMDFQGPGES
UniProt O95279: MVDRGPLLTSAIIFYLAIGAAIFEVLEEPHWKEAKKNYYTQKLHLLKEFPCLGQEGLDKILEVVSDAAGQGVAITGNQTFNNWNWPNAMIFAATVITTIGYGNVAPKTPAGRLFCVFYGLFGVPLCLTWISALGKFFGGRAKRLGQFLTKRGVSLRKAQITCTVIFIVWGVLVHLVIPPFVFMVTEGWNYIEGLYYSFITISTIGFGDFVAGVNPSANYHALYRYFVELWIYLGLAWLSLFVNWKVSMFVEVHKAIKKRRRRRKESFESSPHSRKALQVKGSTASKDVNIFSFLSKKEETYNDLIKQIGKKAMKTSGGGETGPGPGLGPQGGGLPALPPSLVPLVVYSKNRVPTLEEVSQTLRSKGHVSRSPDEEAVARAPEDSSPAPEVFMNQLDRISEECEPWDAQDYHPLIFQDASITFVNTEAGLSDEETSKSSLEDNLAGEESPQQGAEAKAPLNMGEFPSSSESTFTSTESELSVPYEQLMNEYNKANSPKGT

Compound: Cn1cncc1[C@@](N)(c1ccc(Cl)cc1)c1ccc2c(c1)c(-c1cccc(Cl)c1)cc(=O)n2C [tipifarnib]
Test: log2 fold change, soluble protein after heating vs DMSO (PISA); higher = thermal stabilisation; K562 lysate, 10 uM; active = over 0.2 and 3.5 SD of the protein, either way, in both replicates (recomputed)
Outline: (§1)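 K562 pellets were dounce-homogenised in PBS pH 7.4 containing 1 mM MgCl2, and the crude extract, at 1 mg/mL protein, was exposed to 10 μM compound for 30 min. Aliquots were heated for 3 min across 48°C-58°C, pooled, brought to 0.5% NP-40 at 4°C and spun at 21,000xg for 90 min, with the supernatant taken as soluble protein. TMTpro 16plex LC-MS/MS with equalised channel sums quantified that protein. Values are log-two fold changes in thermal stability relative to solvent controls, taken from duplicates.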

Row | Target | log2 fold change
1 | ITPKA (UniProt P23677) | inactive: -0.001
2 | KCTD15 (UniProt Q96SI1) | inactive: 0.028
3 | IPO4 isoform 2 (UniProt Q8TEX9) | inactive: -0.011
4 | IVNS1ABP (UniProt Q9Y6Y0) | inactive: -0.052
5 | KAT8 (UniProt Q9H7Z6) | inactive: -0.029
6 | KCMF1 (UniProt Q9P0J7) | inactive: 0.004
7 | ITGAV (UniProt P06756) | inactive: -0.02
8 | INTS14 (UniProt Q96SY0) | inactive: -0.004
9 | ISOC2 (UniProt Q96AB3) | inactive: -0.017
10 | KCTD5 (UniProt Q9NXV2) | inactive: -0.04
11 | ITPK1 (UniProt Q13572) | inactive: -0.063
12 | KATNAL1 (UniProt Q9BW62) | inactive: 0.069
13 | INTS9 (UniProt Q9NV88) | inactive: -0.008
14 | IQGAP1 (UniProt P46940) | inactive: 0.004
15 | IRGQ (UniProt Q8WZA9) | inactive: -0.01
16 | ISG15 (UniProt P05161) | inactive: -0.005
17 | IST1 (UniProt P53990) | inactive: 0.011
18 | INTS4 (UniProt Q96HW7) | inactive: 0.073
19 | KBTBD2 (UniProt Q8IY47) | inactive: -0.018
20 | KBTBD4 isoform 2 (UniProt Q9NVX7) | inactive: 0.154

Row | Target | log2 fold change
21 | KARS1 (UniProt Q15046) | inactive: 0.02
22 | ITSN2 (UniProt Q9NZM3) | inactive: -0.024
23 | KATNA1 (UniProt O75449) | inactive: -0.032
24 | ITGA5 (UniProt P08648) | inactive: -0.032
25 | KCTD2 (UniProt Q14681) | inactive: -0.081
26 | ISCU (UniProt Q9H1K1) | inactive: 0.041
27 | KAT2A (UniProt Q92830) | inactive: -0.037
28 | JUND (UniProt P17535) | inactive: -0.037
29 | ITSN1 isoform 8 (UniProt Q15811) | inactive: 0.009
30 | INTS5 (UniProt Q6P9B9) | inactive: 0.294
31 | KANSL3 (UniProt Q9P2N6) | inactive: -0.023
32 | IQSEC1 (UniProt Q6DN90) | inactive: -0.142
33 | ITPA (UniProt Q9BY32) | inactive: 0.003
34 | INTS8 (UniProt Q75QN2) | inactive: -0.009
35 | KDELR2 (UniProt P33947) | inactive: -0.112
36 | IP6K1 (UniProt Q92551) | inactive: -0.04
37 | IRF3 (UniProt Q14653) | inactive: 0.002
38 | IWS1 (UniProt Q96ST2) | inactive: 0.001
39 | KCNK5 (UniProt O95279) | inactive: 0.214

Compound: NC(=O)Nc1cc(-c2cccc(F)c2)sc1C(=O)N[C@H]1CCCNC1
Test: as above
Outline: as §1

Row | Target | log2 fold change
40 | ITPKA (UniProt P23677) | inactive: 0.044
41 | KCTD15 (UniProt Q96SI1) | inactive: 0.006
42 | IPO4 isoform 2 (UniProt Q8TEX9) | inactive: -0.009
43 | IVNS1ABP (UniProt Q9Y6Y0) | inactive: 0.069
44 | KAT8 (UniProt Q9H7Z6) | inactive: 0.018
45 | KCMF1 (UniProt Q9P0J7) | inactive: 0.002
46 | ITGAV (UniProt P06756) | inactive: -0.005
47 | INTS14 (UniProt Q96SY0) | inactive: -0.01
48 | ISOC2 (UniProt Q96AB3) | inactive: -0.05
49 | KCTD5 (UniProt Q9NXV2) | inactive: 0.02
50 | ITPK1 (UniProt Q13572) | inactive: 0.056
51 | KATNAL1 (UniProt Q9BW62) | inactive: 0.072
52 | INTS9 (UniProt Q9NV88) | inactive: 0.027
53 | IQGAP1 (UniProt P46940) | inactive: -0.006
54 | IRGQ (UniProt Q8WZA9) | inactive: 0.011
55 | ISG15 (UniProt P05161) | inactive: 0.026
56 | IST1 (UniProt P53990) | inactive: -0.032
57 | INTS4 (UniProt Q96HW7) | inactive: -0.005
58 | KBTBD2 (UniProt Q8IY47) | inactive: 0.007
59 | KBTBD4 isoform 2 (UniProt Q9NVX7) | inactive: 0.086

Row | Target | log2 fold change
60 | KARS1 (UniProt Q15046) | inactive: 0.004
61 | ITSN2 (UniProt Q9NZM3) | inactive: 0.031
62 | KATNA1 (UniProt O75449) | inactive: 0.042
63 | ITGA5 (UniProt P08648) | inactive: 0.021
64 | KCTD2 (UniProt Q14681) | inactive: -0.158
65 | ISCU (UniProt Q9H1K1) | inactive: 0.004
66 | KAT2A (UniProt Q92830) | inactive: 0.207
67 | JUND (UniProt P17535) | inactive: -0.019
68 | ITSN1 isoform 8 (UniProt Q15811) | inactive: 0.055
69 | INTS5 (UniProt Q6P9B9) | inactive: 0.043
70 | KANSL3 (UniProt Q9P2N6) | inactive: 0.008
71 | IQSEC1 (UniProt Q6DN90) | inactive: 0.057
72 | ITPA (UniProt Q9BY32) | inactive: 0.018
73 | INTS8 (UniProt Q75QN2) | inactive: 0.067
74 | KDELR2 (UniProt P33947) | inactive: -0.025
75 | IP6K1 (UniProt Q92551) | inactive: 0.075
76 | IRF3 (UniProt Q14653) | inactive: 0.006
77 | IWS1 (UniProt Q96ST2) | inactive: -0.015
78 | KCNK5 (UniProt O95279) | inactive: 0.141
